Test results published in the supplement of paper PMC10849652.
The list shows a part of the results.

The chains behind the UniProt entries cited, without tags or fusion partners. Where a name states a change or a piece, a line headed by the entry shows the natural chain unless it says otherwise.
UniProt P48556: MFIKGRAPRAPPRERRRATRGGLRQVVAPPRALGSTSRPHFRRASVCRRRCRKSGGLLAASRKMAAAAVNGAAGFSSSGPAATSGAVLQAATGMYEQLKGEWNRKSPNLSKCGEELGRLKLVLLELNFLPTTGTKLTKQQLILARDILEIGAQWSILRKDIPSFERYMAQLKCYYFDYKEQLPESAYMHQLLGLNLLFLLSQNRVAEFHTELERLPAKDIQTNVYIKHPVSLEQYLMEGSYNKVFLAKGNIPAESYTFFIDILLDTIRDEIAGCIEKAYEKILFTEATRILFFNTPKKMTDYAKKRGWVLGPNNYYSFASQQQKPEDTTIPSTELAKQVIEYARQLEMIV
UniProt Q96PZ0: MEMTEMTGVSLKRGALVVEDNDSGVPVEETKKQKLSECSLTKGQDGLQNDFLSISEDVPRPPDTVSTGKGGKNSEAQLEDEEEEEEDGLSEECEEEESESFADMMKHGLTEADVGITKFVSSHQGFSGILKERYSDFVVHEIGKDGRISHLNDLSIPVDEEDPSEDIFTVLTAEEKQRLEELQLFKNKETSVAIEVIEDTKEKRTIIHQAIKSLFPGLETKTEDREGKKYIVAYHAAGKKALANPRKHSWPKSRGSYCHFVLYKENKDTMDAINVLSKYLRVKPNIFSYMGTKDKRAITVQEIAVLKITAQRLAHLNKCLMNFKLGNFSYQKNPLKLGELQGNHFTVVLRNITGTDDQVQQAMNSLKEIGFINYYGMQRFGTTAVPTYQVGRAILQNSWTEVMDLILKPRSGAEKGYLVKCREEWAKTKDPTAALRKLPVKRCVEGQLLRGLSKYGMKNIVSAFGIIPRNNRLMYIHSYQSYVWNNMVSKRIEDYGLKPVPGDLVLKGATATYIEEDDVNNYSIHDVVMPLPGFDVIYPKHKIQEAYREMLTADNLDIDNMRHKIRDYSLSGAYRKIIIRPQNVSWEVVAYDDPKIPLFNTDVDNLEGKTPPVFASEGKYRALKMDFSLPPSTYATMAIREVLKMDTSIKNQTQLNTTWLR
UniProt Q9NRG1: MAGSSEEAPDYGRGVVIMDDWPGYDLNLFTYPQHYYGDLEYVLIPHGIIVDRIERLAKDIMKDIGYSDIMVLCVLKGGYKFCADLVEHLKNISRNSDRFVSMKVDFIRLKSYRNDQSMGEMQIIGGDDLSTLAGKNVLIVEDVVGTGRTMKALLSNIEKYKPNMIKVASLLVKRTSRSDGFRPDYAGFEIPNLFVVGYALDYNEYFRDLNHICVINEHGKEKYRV
UniProt P08575: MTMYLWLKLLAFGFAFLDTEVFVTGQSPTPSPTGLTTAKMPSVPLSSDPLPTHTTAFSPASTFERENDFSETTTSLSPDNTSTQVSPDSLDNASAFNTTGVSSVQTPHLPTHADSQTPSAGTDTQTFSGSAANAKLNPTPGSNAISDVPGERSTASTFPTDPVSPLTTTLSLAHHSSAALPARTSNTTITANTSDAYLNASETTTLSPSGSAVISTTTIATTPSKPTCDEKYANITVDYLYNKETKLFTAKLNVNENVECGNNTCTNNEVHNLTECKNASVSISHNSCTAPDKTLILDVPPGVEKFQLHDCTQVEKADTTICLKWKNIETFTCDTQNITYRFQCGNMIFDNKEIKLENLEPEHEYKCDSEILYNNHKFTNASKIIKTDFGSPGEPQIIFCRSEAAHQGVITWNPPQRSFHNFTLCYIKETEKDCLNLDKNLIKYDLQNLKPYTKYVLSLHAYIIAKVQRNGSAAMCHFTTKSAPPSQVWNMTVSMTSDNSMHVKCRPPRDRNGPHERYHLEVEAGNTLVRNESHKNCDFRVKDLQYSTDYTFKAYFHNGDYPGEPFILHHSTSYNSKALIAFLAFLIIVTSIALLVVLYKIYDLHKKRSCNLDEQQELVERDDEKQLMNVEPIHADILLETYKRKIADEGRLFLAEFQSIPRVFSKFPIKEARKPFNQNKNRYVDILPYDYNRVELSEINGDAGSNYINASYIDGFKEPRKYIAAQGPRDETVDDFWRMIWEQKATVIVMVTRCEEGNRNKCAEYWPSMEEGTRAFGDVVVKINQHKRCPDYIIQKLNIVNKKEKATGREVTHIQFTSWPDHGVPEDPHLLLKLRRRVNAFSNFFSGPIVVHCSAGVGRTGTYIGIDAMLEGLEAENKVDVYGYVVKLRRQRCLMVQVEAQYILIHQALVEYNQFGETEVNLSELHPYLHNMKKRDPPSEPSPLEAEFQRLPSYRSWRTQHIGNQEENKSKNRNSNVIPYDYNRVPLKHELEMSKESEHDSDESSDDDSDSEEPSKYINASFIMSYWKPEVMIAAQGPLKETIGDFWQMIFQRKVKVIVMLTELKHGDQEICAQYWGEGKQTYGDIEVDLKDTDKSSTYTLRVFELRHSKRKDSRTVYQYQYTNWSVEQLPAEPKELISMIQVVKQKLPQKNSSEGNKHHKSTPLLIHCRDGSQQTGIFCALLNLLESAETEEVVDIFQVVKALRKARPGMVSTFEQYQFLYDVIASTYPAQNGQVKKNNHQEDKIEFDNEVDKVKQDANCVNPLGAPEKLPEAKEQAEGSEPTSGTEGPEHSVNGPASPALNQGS
UniProt Q12974: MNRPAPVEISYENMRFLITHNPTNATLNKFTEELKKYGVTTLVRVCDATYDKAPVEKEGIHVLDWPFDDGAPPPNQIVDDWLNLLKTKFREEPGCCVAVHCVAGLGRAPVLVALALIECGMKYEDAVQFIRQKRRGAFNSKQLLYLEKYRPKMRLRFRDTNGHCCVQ
UniProt Q6GMV3: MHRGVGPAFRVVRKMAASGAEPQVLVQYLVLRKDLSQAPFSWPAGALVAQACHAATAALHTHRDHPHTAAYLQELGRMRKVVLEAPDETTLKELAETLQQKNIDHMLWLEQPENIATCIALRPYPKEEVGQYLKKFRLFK
UniProt P28074: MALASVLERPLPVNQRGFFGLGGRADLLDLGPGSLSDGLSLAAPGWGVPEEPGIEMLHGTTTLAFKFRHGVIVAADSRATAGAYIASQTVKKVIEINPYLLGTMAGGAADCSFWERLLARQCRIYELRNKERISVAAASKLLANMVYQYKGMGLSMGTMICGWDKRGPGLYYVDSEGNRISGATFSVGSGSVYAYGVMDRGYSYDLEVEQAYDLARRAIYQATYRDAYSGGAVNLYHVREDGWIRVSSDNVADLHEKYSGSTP
UniProt Q00577: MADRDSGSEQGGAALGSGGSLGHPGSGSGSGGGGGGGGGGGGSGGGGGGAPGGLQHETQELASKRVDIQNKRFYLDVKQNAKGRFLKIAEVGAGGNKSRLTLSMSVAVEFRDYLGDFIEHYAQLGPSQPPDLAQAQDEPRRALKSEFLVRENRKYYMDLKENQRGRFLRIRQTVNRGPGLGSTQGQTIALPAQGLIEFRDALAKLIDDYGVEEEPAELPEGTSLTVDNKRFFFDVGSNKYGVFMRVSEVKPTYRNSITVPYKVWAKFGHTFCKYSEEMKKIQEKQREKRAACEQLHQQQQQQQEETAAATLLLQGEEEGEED
UniProt Q6PGN9: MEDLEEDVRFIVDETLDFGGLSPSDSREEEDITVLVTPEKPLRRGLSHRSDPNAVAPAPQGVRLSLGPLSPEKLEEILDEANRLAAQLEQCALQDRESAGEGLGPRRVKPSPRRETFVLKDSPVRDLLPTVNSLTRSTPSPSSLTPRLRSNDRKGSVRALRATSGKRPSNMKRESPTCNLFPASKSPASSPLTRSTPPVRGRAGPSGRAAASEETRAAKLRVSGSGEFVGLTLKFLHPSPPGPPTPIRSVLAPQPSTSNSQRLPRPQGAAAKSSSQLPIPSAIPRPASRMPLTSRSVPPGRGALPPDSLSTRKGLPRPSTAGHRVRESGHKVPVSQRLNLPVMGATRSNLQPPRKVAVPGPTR
UniProt P28066: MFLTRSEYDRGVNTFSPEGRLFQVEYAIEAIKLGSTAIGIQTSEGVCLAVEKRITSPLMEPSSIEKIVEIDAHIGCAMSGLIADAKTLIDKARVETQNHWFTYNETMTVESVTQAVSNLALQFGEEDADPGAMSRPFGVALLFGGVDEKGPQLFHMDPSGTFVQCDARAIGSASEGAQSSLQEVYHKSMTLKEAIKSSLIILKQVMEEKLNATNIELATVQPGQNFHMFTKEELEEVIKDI
UniProt P20618: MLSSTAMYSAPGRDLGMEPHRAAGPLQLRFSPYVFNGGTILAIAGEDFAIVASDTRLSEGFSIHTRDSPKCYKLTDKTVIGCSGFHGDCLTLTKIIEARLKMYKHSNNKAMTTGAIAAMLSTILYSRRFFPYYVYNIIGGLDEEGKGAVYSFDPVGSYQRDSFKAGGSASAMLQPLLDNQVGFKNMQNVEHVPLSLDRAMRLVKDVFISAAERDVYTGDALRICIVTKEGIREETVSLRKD
UniProt P62333, whole entry, looked up: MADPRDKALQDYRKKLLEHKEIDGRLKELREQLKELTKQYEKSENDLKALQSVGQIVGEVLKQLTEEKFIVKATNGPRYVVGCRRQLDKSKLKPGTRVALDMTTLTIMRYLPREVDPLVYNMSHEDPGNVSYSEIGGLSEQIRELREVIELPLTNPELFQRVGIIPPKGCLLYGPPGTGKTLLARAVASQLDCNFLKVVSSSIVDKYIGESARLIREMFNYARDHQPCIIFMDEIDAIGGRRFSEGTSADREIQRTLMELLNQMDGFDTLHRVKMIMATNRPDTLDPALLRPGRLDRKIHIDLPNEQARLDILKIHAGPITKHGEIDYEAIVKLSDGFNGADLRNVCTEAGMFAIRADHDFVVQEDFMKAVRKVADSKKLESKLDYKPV
UniProt Q15185: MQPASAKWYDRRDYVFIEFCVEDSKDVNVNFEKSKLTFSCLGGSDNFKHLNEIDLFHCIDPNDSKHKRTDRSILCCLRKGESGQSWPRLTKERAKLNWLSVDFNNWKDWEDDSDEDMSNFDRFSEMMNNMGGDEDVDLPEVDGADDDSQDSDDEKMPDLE
UniProt Q08623: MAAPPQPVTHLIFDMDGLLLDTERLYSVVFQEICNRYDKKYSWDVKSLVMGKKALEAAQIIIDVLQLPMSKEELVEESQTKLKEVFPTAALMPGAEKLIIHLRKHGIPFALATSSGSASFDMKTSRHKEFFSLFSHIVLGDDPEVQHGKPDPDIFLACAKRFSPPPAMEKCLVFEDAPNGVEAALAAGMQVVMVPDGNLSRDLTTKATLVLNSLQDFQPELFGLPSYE
UniProt Q9UKA9: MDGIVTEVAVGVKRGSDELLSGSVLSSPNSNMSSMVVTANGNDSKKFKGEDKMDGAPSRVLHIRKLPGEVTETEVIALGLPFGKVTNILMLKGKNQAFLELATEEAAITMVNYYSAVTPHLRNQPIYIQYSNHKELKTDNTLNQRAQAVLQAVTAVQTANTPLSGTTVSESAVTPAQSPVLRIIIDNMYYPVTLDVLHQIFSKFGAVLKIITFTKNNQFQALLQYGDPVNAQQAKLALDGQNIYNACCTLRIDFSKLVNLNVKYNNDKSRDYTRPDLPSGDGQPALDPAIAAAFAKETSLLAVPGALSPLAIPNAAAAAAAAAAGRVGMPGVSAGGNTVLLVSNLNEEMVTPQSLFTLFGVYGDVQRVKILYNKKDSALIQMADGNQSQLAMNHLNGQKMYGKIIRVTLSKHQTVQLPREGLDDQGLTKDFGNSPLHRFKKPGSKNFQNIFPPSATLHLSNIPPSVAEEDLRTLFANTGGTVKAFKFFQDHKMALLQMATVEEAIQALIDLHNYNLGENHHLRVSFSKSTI
UniProt P17980, whole entry, looked up: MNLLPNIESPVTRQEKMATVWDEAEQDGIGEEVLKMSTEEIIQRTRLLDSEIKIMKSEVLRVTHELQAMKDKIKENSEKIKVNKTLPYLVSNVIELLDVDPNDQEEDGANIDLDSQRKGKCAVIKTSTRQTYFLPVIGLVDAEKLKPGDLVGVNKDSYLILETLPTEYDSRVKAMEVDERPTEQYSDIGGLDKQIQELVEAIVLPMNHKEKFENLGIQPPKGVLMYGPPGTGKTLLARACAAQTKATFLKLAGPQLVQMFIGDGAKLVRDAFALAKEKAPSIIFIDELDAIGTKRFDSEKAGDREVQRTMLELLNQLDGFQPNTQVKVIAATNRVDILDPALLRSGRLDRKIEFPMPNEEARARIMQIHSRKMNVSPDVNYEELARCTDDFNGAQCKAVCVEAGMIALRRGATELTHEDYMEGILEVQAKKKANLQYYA

How the values were obtained:
Assay in all cases: log2 fold change, soluble protein after heating vs DMSO (PISA); higher = thermal stabilisation; K562 lysate, 10 uM; active = over 0.2 and 3.5 SD of the protein, either way, in both replicates (recomputed)
alvocidib = compound: CN1CC[C@H](c2c(O)cc(O)c3c(=O)cc(-c4ccccc4Cl)oc23)[C@H](O)C1 [alvocidib]
Outline: (§1)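 Quantification was by TMTpro 16plex LC-MS/MS with equalised channel sums, applied to the supernatant after 21,000xg for 90 min. Samples were crude K562 extract at 1 mg/mL protein in PBS pH 7.4 with 1 mM MgCl2, treated with 10 μM compound for 30 min, heated for 3 min across 48°C-58°C, pooled and brought to 0.5% NP-40 at 4°C. Values are log-two fold changes in thermal stability relative to solvent controls, from duplicates.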

Tubastatin A = compound: CN1CCc2c(c3ccccc3n2Cc2ccc(C(=O)NO)cc2)C1 [Tubastatin A]
Outline: as §1

[1] = compound: CNC(=O)C1=CC=CC=C1NC2=NC(=NC=C2Cl)NC3=C(C=C(C=C3)N4CCOCC4)OC
Outline: as §1

defactinib = compound: CNC(=O)c1ccc(Nc2ncc(C(F)(F)F)c(NCc3nccnc3N(C)S(C)(=O)=O)n2)cc1 [defactinib]
Outline: as §1

[2] = compound: CNc1nc(-c2ccc3c(N)n[nH]c3c2)cc(N2C[C@@H](C(=O)NC3CCCCC3)CC[C@H]2C)n1
Outline: as §1

encorafenib = compound: COC(=O)N[C@@H](C)CNc1nccc(-c2cn(C(C)C)nc2-c2cc(Cl)cc(NS(C)(=O)=O)c2F)n1 [encorafenib]
Outline: as §1

[3] = compound: COC(=O)[C@H](CCSC)NC(=O)C1=C(C=C(C=C1)NC[C@H](CS)N)C2=CC=CC=C2
Outline: as §1

alisertib = compound: COc1cc(Nc2ncc3c(n2)-c2ccc(Cl)cc2C(c2c(F)cccc2OC)=NC3)ccc1C(=O)O [alisertib]
Outline: as §1

[4] = compound: COc1cc2nc(-c3cc(F)ccc3O)nc(N[C@@H]3CNC[C@H]3C(C)(C)O)c2cc1OC
Outline: as §1

gefitinib = compound: COc1cc2ncnc(Nc3ccc(F)c(Cl)c3)c2cc1OCCCN1CCOCC1 [gefitinib]
Outline: as §1

lapatinib = compound: CS(=O)(=O)CCNCc1ccc(-c2ccc3ncnc(Nc4ccc(OCc5cccc(F)c5)c(Cl)c4)c3c2)o1 [lapatinib]
Outline: as §1

pictilisib = compound: CS(=O)(=O)N1CCN(Cc2cc3nc(-c4cccc5[nH]ncc45)nc(N4CCOCC4)c3s2)CC1 [pictilisib]
Outline: as §1

crizotinib = compound: C[C@@H](Oc1cc(-c2cnn(C3CCNCC3)c2)cnc1N)c1c(Cl)ccc(F)c1Cl [crizotinib]
Outline: as §1

[5] = compound: C[C@H](C1=CC=C(C=C1)C(=O)NC2=C3C=CNC3=NC=C2)N
Outline: as §1

duvelisib = compound: C[C@H](Nc1ncnc2nc[nH]c12)c1cc2cccc(Cl)c2c(=O)n1-c1ccccc1 [duvelisib]
Outline: as §1

gandotinib = compound: Cc1cc(Nc2cc(CN3CCOCC3)c3nc(C)c(Cc4ccc(Cl)cc4F)n3n2)n[nH]1 [gandotinib]
Outline: as §1

tozasertib = compound: Cc1cc(Nc2cc(N3CCN(C)CC3)nc(Sc3ccc(NC(=O)C4CC4)cc3)n2)n[nH]1 [tozasertib]
Outline: as §1

doramapimod = compound: Cc1ccc(-n2nc(C(C)(C)C)cc2NC(=O)Nc2ccc(OCCN3CCOCC3)c3ccccc23)cc1 [doramapimod]
Outline: as §1

bafetinib = compound: Cc1ccc(NC(=O)c2ccc(CN3CC[C@H](N(C)C)C3)c(C(F)(F)F)c2)cc1Nc1nccc(-c2cncnc2)n1 [bafetinib]
Outline: as §1

[6] = compound: Cc1cccc(CC(=O)N2CCc3c2ccc(-c2cn(C)c4ncnc(N)c24)c3F)n1
Outline: as §1

Measured: log2 fold change

PSMD8 (UniProt P48556)
inactive: alvocidib -0.021 | Tubastatin A -0.017 | [1] 0.019 | defactinib 0.047 | [2] -0.013 | encorafenib -0.002 | [3] 0.058 | alisertib 0.028 | [4] -0.026 | gefitinib -0.047 | lapatinib -0.028 | pictilisib -0.004 | crizotinib -0.022 | [5] -0.032 | duvelisib 0.006 | gandotinib -0.078 | tozasertib 0.011 | doramapimod 0.052 | bafetinib -0.07 | [6] 0.028

PUS7 isoform 2 (UniProt Q96PZ0)
inactive: alvocidib -0.001 | Tubastatin A 0.022 | [1] 0.012 | defactinib 0.004 | [2] 0.038 | encorafenib -0.005 | [3] 0.012 | alisertib -0.023 | [4] 0.004 | gefitinib -0.005 | lapatinib -0.033 | pictilisib -0.02 | crizotinib -0.001 | [5] -0.013 | duvelisib 0.034 | gandotinib 0.033 | tozasertib -0.027 | doramapimod -0.005 | bafetinib -0.008 | [6] -0.002

PRTFDC1 (UniProt Q9NRG1)
inactive: alvocidib 0.078 | Tubastatin A 0.017 | [1] -0.021 | defactinib -0.05 | [2] 0.034 | encorafenib -0.037 | [3] -0.047 | alisertib 0.024 | [4] -0.013 | gefitinib -0.015 | lapatinib -0.017 | pictilisib 0.038 | crizotinib 0.077 | [5] 0.003 | duvelisib -0.027 | gandotinib 0.014 | tozasertib 0.006 | doramapimod -0.034 | bafetinib 0.036 | [6] -0.1

PTPRC (UniProt P08575)
inactive: alvocidib -0.027 | Tubastatin A 0.023 | [1] -0.018 | defactinib -0.025 | [2] -0.007 | encorafenib -0.021 | [3] -0.029 | alisertib -0.004 | [4] 0.004 | gefitinib 0.045 | lapatinib -0.005 | pictilisib -0.007 | crizotinib -0.001 | [5] -0.07 | duvelisib 0.036 | gandotinib 0.032 | tozasertib -0.007 | doramapimod 0.008 | bafetinib 0.016 | [6] 0.04

PTP4A2 (UniProt Q12974)
inactive: alvocidib 0.101 | Tubastatin A -0.013 | [1] 0.057 | defactinib 0.043 | [2] 0.05 | encorafenib 0.014 | [3] -0.02 | alisertib -0.01 | [4] -0.004 | gefitinib -0.111 | lapatinib -0.004 | pictilisib 0.019 | crizotinib 0.041 | [5] 0.041 | duvelisib -0.041 | gandotinib -0.112 | tozasertib 0 | doramapimod 0.055 | bafetinib -0.038 | [6] -0.124

PTRHD1 (UniProt Q6GMV3)
inactive: alvocidib 0.152 | Tubastatin A 0.14 | [1] 0.04 | defactinib 0.074 | [2] 0.051 | encorafenib 0.001 | [3] 0.016 | alisertib 0.036 | [4] -0.069 | gefitinib -0.242 | lapatinib 0.101 | pictilisib -0.03 | crizotinib -0.031 | [5] 0.18 | duvelisib -0.03 | gandotinib -0.055 | tozasertib 0.063 | doramapimod 0.003 | bafetinib -0.162 | [6] -0.088

2 entries drawn at random from those above:
PUS7 isoform 2 (UniProt Q96PZ0)
inactive: alvocidib -0.001 | Tubastatin A 0.022 | [1] 0.012 | defactinib 0.004 | [2] 0.038 | encorafenib -0.005 | [3] 0.012 | alisertib -0.023 | [4] 0.004 | gefitinib -0.005 | lapatinib -0.033 | pictilisib -0.02 | crizotinib -0.001 | [5] -0.013 | duvelisib 0.034 | gandotinib 0.033 | tozasertib -0.027 | doramapimod -0.005 | bafetinib -0.008 | [6] -0.002

PTRHD1 (UniProt Q6GMV3)
inactive: alvocidib 0.152 | Tubastatin A 0.14 | [1] 0.04 | defactinib 0.074 | [2] 0.051 | encorafenib 0.001 | [3] 0.016 | alisertib 0.036 | [4] -0.069 | gefitinib -0.242 | lapatinib 0.101 | pictilisib -0.03 | crizotinib -0.031 | [5] 0.18 | duvelisib -0.03 | gandotinib -0.055 | tozasertib 0.063 | doramapimod 0.003 | bafetinib -0.162 | [6] -0.088

Following part

PSMB5 (UniProt P28074)
inactive: alvocidib 0.009 | Tubastatin A 0.016 | [1] 0.006 | defactinib 0.01 | [2] 0.041 | encorafenib -0.005 | [3] -0.034 | alisertib -0.016 | [4] 0.015 | gefitinib -0.009 | lapatinib -0.025 | pictilisib 0.016 | crizotinib 0.029 | [5] -0.008 | duvelisib 0.004 | gandotinib 0.018 | tozasertib -0.001 | doramapimod -0.028 | bafetinib -0.002 | [6] -0.023

PURA (UniProt Q00577)
inactive: alvocidib 0.045 | Tubastatin A 0.091 | [1] -0.001 | defactinib 0.026 | [2] -0.015 | encorafenib 0.024 | [3] -0.014 | alisertib 0.007 | [4] -0.005 | gefitinib -0.012 | lapatinib -0.007 | pictilisib -0.002 | crizotinib 0.009 | [5] 0.206 | duvelisib 0.026 | gandotinib -0.157 | tozasertib 0.015 | doramapimod -0.019 | bafetinib -0.001 | [6] -0.074

PSRC1 (UniProt Q6PGN9)
inactive: alvocidib 0.05 | Tubastatin A -0.069 | [1] 0.13 | defactinib 0.009 | [2] -0.087 | encorafenib 0.152 | [3] -0.066 | alisertib 0.018 | [4] -0.065 | gefitinib 0.064 | lapatinib 0.039 | pictilisib 0.01 | crizotinib -0.044 | [5] -0.068 | duvelisib -0.015 | gandotinib 0.234 | tozasertib 0.118 | doramapimod 0.233 | bafetinib -0.113 | [6] 0.095

PSMA5 (UniProt P28066)
inactive: alvocidib -0.037 | Tubastatin A 0.029 | [1] -0.007 | defactinib -0.006 | [2] 0.01 | encorafenib -0.027 | [3] -0.011 | alisertib -0.019 | [4] 0.004 | gefitinib 0 | lapatinib -0.015 | pictilisib 0.018 | crizotinib -0.003 | [5] -0.029 | duvelisib 0.031 | gandotinib 0.026 | tozasertib -0.017 | doramapimod -0.001 | bafetinib 0 | [6] 0.014

PSMB1 (UniProt P20618)
inactive: alvocidib 0.009 | Tubastatin A 0.046 | [1] 0.011 | defactinib -0.012 | [2] 0.044 | encorafenib 0.008 | [3] -0.012 | alisertib -0.024 | [4] 0.012 | gefitinib -0.04 | lapatinib -0.011 | pictilisib 0.006 | crizotinib 0.007 | [5] -0.003 | duvelisib -0.006 | gandotinib 0.03 | tozasertib 0.019 | doramapimod -0.009 | bafetinib -0.031 | [6] 0.007

PSMC6 (UniProt P62333)
inactive: alvocidib 0.012 | Tubastatin A -0.055 | [1] 0.008 | defactinib -0.017 | [2] -0.028 | encorafenib -0.003 | [3] 0.067 | alisertib 0.001 | [4] 0.009 | gefitinib -0.012 | lapatinib -0.023 | pictilisib 0.014 | crizotinib -0.006 | [5] 0.018 | duvelisib 0.023 | gandotinib -0.111 | tozasertib -0.012 | doramapimod -0.003 | bafetinib 0.02 | [6] -0.023

PTGES3 (UniProt Q15185)
inactive: alvocidib 0.018 | Tubastatin A 0.004 | [1] 0.009 | defactinib 0.002 | [2] 0.039 | encorafenib -0.035 | [3] -0.021 | alisertib -0.011 | [4] -0.006 | gefitinib -0.022 | lapatinib 0.003 | pictilisib -0.006 | crizotinib -0.005 | [5] 0.089 | duvelisib 0.002 | gandotinib -0.008 | tozasertib -0.048 | doramapimod -0.004 | bafetinib 0.064 | [6] -0.039

PUDP isoform 4 (UniProt Q08623)
inactive: alvocidib 0.014 | Tubastatin A 0.066 | [1] 0.016 | defactinib 0.06 | [2] 0.02 | encorafenib 0.01 | [3] -0.023 | alisertib -0.017 | [4] -0.007 | gefitinib -0.016 | lapatinib -0.019 | pictilisib 0.008 | crizotinib 0.009 | [5] -0.009 | duvelisib 0.016 | gandotinib 0.045 | tozasertib 0.034 | doramapimod -0.015 | bafetinib 0 | [6] 0.084

PTBP2 isoform 2 (UniProt Q9UKA9)
inactive: alvocidib -0.104 | Tubastatin A 0.059 | [1] 0.019 | defactinib 0.057 | [2] 0.033 | encorafenib -0.02 | [3] 0.104 | alisertib -0.033 | [4] 0.022 | gefitinib 0.106 | lapatinib 0.024 | pictilisib 0.069 | crizotinib 0.032 | [5] 0.11 | duvelisib 0.013 | gandotinib -0.095 | tozasertib -0.018 | doramapimod -0.021 | bafetinib -0.004 | [6] -0.1

PSMC3 (UniProt P17980)
inactive: alvocidib 0.025 | Tubastatin A -0.013 | [1] 0.004 | defactinib -0.003 | [2] -0.016 | encorafenib 0.013 | [3] 0.064 | alisertib 0.027 | [4] 0 | gefitinib -0.005 | lapatinib -0.012 | pictilisib -0.009 | crizotinib -0.004 | [5] 0.044 | duvelisib 0 | gandotinib -0.07 | tozasertib 0.003 | doramapimod -0.014 | bafetinib 0.02 | [6] -0.041
